Data as given in PubChem BioAssay AID1259308 (NCATS, 2017).
Shown is one part, drawn at random, of about 59,000 reagents tested. About 1,510 of them (2.6%) were called active. 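Calls use total luciferase alone and ignore viability, so some active siRNAs may act by altering cell number.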 The numbers tell different reagents against one gene apart.

- Aim: 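Genes whose loss raises luciferase production in HEK293 cells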 (primary screen)
- Cells: human HEK293 embryonic kidney cells stably expressing firefly luciferase (HEK-CMV-Luc2-Hygro)
- Reagents: single siRNA against human genes, 0.8 pmol siRNA per well
- Duration: 72 h
- Detection: 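Reporter luminescence and viable-cell signal on separate replicate plates, given as percent of non-targeting control and median/MAD z-scores, plus per-cell luciferase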
- Direction: total luciferase, z-score and total luciferase, % of control: higher = more reporter protein produced; luciferase per cell, z-score: higher = more reporter output per viable cell; viable cells, % of control: higher = more viable cells
- Rule for the call: 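Active when the median/MAD z-score for overall luciferase is greater than 3; a gene was taken forward for validation with new siRNAs if at least two of its three siRNAs passed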
- Calls: active = raised luciferase; inactive = no rise

gene symbol	reagent	total luciferase, z-score	total luciferase, % of control	luciferase per cell, z-score	viable cells, % of control	Outcome
RCVRN	1	3.05	143	2.19	89.5	active
RCVRN	2	-0.17	78.5	-0.729	106	inactive
RCVRN	3	0.36	89	-0.444	112	inactive
TIMM23B	1	-0.621	69.5	0.445	69.1	inactive
TIMM23B	2	-0.499	72	0.337	73.6	inactive
TIMM23B	3	-0.173	78.5	-0.13	90.7	inactive
TIMM23B	4	-0.162	78.7	0.0208	87.4	inactive
TIMM23B	5	2.94	140	1.99	93	inactive
TIMM23B	6	-0.0945	80	-0.461	101	inactive
CNTNAP2	1	-0.0474	80.9	-0.236	96.2	inactive
CNTNAP2	2	0.586	93.5	0.233	98.3	inactive
CNTNAP2	3	-0.618	69.6	0.734	64.1	inactive
TRIM69	1	-0.23	77.3	-0.368	95.2	inactive
TRIM69	2	-0.835	65.3	-0.227	77.4	inactive
TRIM69	3	-0.762	66.7	-0.469	84.4	inactive
DYNC1LI2	1	-2.1	40.1	-2.35	83.1	inactive
DYNC1LI2	2	-0.296	76	-0.252	90.8	inactive
DYNC1LI2	3	0.411	90.1	0.277	93.5	inactive
KIF3A	1	-0.178	78.4	-0.102	89.9	inactive
KIF3A	2	0.1	83.9	-0.146	97.4	inactive
KIF3A	3	0.278	87.4	-0.112	101	inactive
SLC22A24	1	-0.438	73.2	-0.194	86	inactive
SLC22A24	2	-1.77	46.8	-1.79	83.8	inactive
SLC22A24	3	-0.19	78.1	-0.203	92.1	inactive

The list goes on; the last 2 above are carried over.
gene symbol	reagent	total luciferase, z-score	total luciferase, % of control	luciferase per cell, z-score	viable cells, % of control	Outcome
SLC22A24	2	-1.77	46.8	-1.79	83.8	inactive
SLC22A24	3	-0.19	78.1	-0.203	92.1	inactive
MSX2	1	2.69	135	2.22	84.3	inactive
MSX2	2	0.43	90.4	0.74	83.2	inactive
MSX2	3	0.0228	82.3	0.214	87	inactive
PRKACB	1	0.0262	82.4	-0.575	107	inactive
PRKACB	2	-0.175	78.4	-0.833	109	inactive
PRKACB	3	-1.07	60.5	-1.78	108	inactive
DEFB129	1	-0.963	62.7	0.147	67.4	inactive
DEFB129	2	2.65	135	2.53	77.3	inactive
DEFB129	3	1.05	103	1.32	81.3	inactive
SOX4	1	-0.248	77	-0.203	90.7	inactive
SOX4	2	4.24	166	4.04	64.1	active
SOX4	3	0.45	90.8	-0.412	113	inactive
KIFAP3	1	-0.26	76.7	-0.76	105	inactive
KIFAP3	2	-0.762	66.7	-0.489	84.8	inactive
KIFAP3	3	-1.11	59.9	-0.293	72.3	inactive
FCER1G	1	-0.191	78.1	-0.404	97.1	inactive
FCER1G	2	-0.0254	81.4	-0.548	105	inactive
FCER1G	3	0.491	91.7	-0.429	115	inactive
TMEM17	1	-2.43	33.6	-2.62	74.8	inactive
TMEM17	2	-0.823	65.5	-0.368	80.7	inactive
TMEM17	3	1.24	107	1.28	84.9	inactive
RBM4	1	2.13	124	3.52	54.9	inactive
RBM4	2	4.95	180	2.25	112	active
RBM4	3	-0.678	68.4	-1.62	117	inactive
NDUFAF6	1	0.155	85	-0.342	104	inactive
NDUFAF6	2	1.58	113	1.27	90.6	inactive
NDUFAF6	3	1.24	107	1.34	83.7	inactive
KRT75	1	-0.217	77.6	-0.43	97.1	inactive
KRT75	2	1.47	111	1.38	86.3	inactive
KRT75	3	-0.197	78	-0.742	106	inactive
RC3H2	1	-0.328	75.4	-0.728	102	inactive
RC3H2	2	0.0546	83	-0.0273	93.4	inactive
RC3H2	3	0.686	95.5	1.03	81.5	inactive
